These are yes or no findings as the source states them, for the method shown. In cells and extracts the contact can be indirect. Some results given as binding are weak or reduced against the parent protein; the word gives no strength.

The chains behind the UniProt entries cited, without tags or fusion partners.
UniProt P42685: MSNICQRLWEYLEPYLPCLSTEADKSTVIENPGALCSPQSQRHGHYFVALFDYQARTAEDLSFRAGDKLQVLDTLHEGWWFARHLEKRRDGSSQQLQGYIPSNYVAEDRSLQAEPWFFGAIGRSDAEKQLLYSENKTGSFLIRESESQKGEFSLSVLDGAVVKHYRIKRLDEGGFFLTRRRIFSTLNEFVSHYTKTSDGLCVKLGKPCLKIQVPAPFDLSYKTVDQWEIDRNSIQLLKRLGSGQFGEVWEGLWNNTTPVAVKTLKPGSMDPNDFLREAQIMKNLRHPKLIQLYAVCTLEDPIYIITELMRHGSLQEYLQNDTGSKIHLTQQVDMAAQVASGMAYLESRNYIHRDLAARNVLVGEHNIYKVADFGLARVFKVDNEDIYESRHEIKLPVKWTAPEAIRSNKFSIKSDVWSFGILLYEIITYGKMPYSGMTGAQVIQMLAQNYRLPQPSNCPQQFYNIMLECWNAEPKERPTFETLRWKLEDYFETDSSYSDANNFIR
UniProt Q9NPD8: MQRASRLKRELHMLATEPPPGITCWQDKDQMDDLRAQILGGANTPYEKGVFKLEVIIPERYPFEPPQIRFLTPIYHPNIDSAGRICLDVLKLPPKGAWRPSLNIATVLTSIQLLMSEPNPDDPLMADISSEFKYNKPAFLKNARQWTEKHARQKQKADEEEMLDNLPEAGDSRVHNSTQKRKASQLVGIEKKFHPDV

Assay [1] addresses HA-BRCA1 wild-type (human) (UniProt P38398). Description: co-IP; HA-BRCA1 WT or deletion mutants transfected into 293T cells, pulled down with an anti-HA antibody, western blot with an anti-Rak antibody. For orientation: Immunoblotting shows a protein as a band on a membrane.
Assay [2] addresses BRCA1 (human (endogenous in MCF10A)) (UniProt P38398). Kind of assay: co-IP; lysates from MCF10A cells (modified RIPA buffer) immunoprecipitated with an anti-Rak or anti-BRCA1 antibody, immunoblotted with an anti-BRCA1 or anti-Rak antibody; endogenous proteins.
For assay [3] the target is unchanged. Description: co-IP; lysates from control or Rak-depleted (siRNA) MCF10A cells immunoprecipitated with an anti-BRCA1 antibody or a mouse IgG, western blot; BRCA1 levels normalized before pull-down.
The target in assay [4] is BRCA1 Y1552F (HA-tagged), expressed in HCC1937 cells (human) (UniProt P38398). Kind of assay: co-IP; lysates from HCC1937 cells expressing wild-type or Y1552F BRCA1 immunoprecipitated with an anti-HA antibody, western blot with an anti-UBE2T antibody; BRCA1 levels normalized before pull-down.

“Fyn-related kinase (Frk)/Rak (from UniProt P42685 1-505)”: the binding result in assay [1] and in assay [2] was “binds” throughout.
In the case of “ubiquitin conjugating enzyme 2T (UBE2T) (from UniProt Q9NPD8 1-197)”, the binding entry in assay [3] and in assay [4] was “binds” throughout.
